Test results from the supplement of paper PMC11732987, “Enantioselective OTUD7B fragment discovery through chemoproteomics screening and high-throughput optimisation” (Communications Chemistry, 2025).
The list shows a part of the results. The data scatter; read single values as rough.

Protein sequences, listed by entry. Tags and fused reporters are not part of them. Lines headed by an entry give the natural chain unless they say otherwise; changes in a name come on top. Residues count along the entry.
UniProt P33897: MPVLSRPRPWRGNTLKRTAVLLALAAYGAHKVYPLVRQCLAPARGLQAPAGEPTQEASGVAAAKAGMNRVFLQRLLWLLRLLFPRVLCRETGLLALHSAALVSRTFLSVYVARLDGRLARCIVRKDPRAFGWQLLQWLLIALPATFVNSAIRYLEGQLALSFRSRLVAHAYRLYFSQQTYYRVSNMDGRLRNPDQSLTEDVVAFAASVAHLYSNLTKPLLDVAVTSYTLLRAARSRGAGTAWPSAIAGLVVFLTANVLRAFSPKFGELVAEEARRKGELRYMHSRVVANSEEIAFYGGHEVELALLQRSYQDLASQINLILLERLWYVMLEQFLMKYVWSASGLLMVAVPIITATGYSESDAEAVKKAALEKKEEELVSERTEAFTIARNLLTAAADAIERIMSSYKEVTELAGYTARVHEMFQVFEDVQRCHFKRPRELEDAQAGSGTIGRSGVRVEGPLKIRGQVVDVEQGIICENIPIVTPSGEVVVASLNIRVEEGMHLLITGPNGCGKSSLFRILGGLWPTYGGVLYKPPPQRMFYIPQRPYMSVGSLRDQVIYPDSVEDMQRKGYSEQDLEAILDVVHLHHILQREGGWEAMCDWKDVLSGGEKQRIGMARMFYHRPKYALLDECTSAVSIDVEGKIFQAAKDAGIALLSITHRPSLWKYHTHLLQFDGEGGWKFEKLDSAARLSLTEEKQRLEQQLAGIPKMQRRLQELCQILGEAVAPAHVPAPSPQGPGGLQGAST
UniProt Q6PCB6, 51-94: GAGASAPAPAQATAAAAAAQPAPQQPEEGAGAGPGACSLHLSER
UniProt Q9NUT2: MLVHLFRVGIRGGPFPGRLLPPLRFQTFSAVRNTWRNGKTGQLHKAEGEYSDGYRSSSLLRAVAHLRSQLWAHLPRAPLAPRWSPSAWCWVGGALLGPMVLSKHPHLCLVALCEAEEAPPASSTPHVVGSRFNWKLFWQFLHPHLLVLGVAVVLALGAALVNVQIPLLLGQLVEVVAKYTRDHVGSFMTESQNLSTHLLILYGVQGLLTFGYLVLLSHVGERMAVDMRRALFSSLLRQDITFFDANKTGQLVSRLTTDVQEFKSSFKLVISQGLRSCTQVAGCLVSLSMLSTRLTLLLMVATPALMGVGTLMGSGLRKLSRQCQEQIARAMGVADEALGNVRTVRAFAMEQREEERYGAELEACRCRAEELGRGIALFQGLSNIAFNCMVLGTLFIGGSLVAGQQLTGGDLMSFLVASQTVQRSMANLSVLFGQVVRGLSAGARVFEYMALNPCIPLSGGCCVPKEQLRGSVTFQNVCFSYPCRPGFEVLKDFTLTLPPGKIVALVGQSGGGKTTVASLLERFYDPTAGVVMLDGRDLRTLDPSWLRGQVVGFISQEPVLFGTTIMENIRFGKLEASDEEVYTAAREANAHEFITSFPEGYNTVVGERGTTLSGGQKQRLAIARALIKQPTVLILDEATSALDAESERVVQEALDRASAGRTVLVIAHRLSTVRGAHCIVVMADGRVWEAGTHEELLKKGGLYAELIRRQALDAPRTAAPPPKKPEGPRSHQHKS
UniProt Q9NUQ8: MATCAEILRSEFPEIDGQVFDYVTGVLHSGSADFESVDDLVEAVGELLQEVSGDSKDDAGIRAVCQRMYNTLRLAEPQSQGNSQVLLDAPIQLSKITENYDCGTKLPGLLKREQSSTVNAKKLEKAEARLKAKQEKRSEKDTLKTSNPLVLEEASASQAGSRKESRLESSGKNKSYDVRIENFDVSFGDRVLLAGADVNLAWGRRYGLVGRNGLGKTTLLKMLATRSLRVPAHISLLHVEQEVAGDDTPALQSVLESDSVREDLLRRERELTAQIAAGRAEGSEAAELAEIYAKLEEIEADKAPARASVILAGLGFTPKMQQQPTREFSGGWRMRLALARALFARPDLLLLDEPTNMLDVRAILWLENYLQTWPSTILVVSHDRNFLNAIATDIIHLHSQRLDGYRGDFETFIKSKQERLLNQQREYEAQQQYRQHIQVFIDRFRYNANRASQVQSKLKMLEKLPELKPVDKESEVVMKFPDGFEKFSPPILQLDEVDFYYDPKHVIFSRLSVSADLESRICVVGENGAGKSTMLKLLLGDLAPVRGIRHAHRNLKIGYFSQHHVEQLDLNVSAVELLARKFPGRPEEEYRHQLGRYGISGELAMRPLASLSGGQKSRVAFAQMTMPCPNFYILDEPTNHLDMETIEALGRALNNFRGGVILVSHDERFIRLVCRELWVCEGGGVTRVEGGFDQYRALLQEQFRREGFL
UniProt P42684, whole entry, looked up: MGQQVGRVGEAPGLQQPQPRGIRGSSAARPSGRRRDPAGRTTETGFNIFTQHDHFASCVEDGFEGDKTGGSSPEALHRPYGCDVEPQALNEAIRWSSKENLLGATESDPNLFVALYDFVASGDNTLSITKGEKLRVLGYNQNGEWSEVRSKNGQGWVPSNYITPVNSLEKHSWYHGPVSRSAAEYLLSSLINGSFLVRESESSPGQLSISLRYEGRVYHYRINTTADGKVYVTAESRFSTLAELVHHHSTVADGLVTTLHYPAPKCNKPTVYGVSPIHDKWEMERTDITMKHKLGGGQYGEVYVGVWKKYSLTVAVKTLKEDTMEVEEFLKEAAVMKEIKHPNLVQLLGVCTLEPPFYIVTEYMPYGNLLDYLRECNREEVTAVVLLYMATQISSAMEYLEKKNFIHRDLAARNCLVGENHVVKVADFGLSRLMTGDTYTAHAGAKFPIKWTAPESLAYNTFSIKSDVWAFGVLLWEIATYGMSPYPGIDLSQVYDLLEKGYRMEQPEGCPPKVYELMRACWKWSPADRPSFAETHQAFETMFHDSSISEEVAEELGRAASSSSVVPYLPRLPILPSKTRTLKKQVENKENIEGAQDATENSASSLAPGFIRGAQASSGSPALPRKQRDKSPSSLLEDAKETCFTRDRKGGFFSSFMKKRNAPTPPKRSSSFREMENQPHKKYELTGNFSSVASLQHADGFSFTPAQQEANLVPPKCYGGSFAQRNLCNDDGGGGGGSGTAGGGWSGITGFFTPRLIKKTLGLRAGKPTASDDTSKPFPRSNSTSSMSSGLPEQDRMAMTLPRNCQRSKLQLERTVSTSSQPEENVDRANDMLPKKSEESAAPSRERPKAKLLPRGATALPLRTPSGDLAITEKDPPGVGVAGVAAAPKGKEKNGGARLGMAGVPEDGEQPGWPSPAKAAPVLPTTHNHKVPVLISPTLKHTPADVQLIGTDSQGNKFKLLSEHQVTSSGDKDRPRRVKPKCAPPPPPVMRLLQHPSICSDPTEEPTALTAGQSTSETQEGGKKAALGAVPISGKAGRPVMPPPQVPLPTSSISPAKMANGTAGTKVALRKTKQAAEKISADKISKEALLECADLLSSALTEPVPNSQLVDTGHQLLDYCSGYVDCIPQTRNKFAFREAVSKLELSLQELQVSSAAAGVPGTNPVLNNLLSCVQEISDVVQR
UniProt P42684, 992-1024: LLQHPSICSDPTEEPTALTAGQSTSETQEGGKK
UniProt O95870: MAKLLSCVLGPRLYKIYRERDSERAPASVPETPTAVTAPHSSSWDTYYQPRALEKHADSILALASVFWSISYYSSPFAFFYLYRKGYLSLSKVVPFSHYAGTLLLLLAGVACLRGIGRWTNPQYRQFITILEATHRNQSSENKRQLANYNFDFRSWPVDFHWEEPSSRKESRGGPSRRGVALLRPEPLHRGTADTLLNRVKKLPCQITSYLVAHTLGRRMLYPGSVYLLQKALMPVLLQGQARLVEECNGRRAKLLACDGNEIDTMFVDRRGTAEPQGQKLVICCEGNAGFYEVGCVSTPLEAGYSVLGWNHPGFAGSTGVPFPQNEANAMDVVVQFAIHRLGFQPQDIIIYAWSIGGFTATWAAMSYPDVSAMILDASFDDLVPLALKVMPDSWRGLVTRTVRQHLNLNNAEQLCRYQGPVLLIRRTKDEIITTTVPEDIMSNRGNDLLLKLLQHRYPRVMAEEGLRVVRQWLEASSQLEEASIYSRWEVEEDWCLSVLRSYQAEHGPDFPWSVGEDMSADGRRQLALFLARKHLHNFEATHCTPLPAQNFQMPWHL
UniProt Q5JTZ9, 902-922: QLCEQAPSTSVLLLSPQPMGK
UniProt Q5JTZ9, whole entry, looked up: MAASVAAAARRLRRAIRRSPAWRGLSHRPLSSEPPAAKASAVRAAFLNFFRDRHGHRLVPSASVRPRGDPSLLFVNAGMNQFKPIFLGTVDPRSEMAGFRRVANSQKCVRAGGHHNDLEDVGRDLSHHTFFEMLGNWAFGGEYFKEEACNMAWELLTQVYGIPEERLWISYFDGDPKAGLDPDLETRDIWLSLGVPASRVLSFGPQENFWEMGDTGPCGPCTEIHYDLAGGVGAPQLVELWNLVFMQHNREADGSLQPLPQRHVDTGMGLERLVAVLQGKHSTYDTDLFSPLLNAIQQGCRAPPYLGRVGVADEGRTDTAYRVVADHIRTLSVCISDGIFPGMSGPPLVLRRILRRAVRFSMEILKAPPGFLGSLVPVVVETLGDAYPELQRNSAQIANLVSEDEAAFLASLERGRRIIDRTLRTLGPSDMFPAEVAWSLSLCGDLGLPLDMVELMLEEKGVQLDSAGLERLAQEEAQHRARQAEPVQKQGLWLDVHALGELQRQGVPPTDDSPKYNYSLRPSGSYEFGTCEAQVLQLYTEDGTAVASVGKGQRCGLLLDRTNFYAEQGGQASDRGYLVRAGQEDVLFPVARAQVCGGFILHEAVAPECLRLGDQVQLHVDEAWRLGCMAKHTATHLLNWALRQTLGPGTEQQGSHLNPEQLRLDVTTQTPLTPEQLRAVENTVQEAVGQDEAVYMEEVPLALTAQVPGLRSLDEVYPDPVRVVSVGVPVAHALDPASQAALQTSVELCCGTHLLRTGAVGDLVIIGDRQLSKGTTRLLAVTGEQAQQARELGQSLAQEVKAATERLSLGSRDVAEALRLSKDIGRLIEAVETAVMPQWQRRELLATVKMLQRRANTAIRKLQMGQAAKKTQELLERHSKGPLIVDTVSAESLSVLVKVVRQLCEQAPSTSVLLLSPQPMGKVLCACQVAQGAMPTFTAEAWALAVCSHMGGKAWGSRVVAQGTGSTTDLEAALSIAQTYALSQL
UniProt P00519, whole entry, looked up: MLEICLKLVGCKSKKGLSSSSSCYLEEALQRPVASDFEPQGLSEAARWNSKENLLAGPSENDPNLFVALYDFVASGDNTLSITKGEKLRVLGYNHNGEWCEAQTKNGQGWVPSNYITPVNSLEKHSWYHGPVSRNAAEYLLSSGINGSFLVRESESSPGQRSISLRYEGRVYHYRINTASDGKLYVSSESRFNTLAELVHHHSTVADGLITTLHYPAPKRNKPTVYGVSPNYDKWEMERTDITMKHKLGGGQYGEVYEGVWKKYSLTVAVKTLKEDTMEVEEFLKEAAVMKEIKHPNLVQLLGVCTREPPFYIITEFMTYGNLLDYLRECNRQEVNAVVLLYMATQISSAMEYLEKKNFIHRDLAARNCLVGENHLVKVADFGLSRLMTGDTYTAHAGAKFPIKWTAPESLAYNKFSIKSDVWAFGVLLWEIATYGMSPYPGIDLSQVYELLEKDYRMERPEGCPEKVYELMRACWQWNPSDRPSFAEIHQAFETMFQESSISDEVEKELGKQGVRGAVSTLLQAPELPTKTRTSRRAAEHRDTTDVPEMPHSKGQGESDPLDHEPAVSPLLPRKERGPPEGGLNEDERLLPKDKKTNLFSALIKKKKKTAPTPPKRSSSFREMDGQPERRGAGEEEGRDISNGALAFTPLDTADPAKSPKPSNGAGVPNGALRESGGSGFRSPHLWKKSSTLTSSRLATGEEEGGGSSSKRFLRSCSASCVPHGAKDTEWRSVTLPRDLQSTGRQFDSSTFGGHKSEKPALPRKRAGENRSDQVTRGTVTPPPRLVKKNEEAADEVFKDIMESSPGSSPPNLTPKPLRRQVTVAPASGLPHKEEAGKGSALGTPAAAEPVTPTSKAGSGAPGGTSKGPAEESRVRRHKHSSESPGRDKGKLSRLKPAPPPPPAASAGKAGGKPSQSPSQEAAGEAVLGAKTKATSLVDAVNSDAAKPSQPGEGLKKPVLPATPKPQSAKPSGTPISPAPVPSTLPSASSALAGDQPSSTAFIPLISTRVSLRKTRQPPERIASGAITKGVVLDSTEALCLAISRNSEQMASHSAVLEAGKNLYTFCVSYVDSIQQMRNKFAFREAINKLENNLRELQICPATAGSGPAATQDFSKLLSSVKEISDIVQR
UniProt Q9BV23: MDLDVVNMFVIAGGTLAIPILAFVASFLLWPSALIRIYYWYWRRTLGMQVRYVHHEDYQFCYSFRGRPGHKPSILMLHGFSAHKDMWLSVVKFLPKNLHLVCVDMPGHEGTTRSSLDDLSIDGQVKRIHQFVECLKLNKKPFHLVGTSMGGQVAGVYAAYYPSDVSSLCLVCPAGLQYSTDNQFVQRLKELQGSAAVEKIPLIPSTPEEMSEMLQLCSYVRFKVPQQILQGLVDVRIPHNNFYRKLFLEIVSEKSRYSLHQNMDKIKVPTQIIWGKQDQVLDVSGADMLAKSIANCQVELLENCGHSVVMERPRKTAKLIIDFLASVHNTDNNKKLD
UniProt P16219, 149-171: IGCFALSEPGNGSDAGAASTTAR

compound: ClCC(=O)N[C@H]1CCCc2ccccc12; assay: log2 mean competition ratio of IA-DTB cysteine labelling (DMSO/compound) (log2 ratio); higher = stronger cysteine engagement by compound; conditions: 50 µM; treatment time: 4 h; cell line lysate: HEK293T
Description: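 IA-DTB competitive cysteine chemoproteomics in HEK293T RIPA lysate. Lysates were treated with compound 29 or 30 at 50 or 200 µM for 4 h, then IA-DTB (500 µM, 1 h), trypsin-digested, NeutrAvidin-enriched and analysed by diaPASEF. Competition ratio = intensity DMSO / intensity compound (n=4 treated, n=64 DMSO); binding: mean log2 CR ≥ 1 and p ≤ 0.05 plus QC filters. Target is the cysteine site.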

Row | Target | log2 mean competition ratio
1 | ABCD1 C511 (UniProt P33897) | -0.192
2 | ACADSB C261 (UniProt P45954) | 0.243
3 | ABHD17C C87 (UniProt Q6PCB6) | -0.243
4 | ABCB8 C364 (UniProt Q9NUT2) | -0.0741
5 | ACACA C407 (UniProt Q13085) | 0.0263
6 | ABCF3 C680 (UniProt Q9NUQ8) | 0.0767
7 | ABL2 C415 (UniProt P42684) | -0.237
8 | ACACA C1396 (UniProt Q13085) | -0.465
9 | ABHD16A C248 (UniProt O95870) | -0.17
10 | AASS C342 | -0.267
11 | AARS2 C904 (UniProt Q5JTZ9) | -0.113
12 | ABCF3 C522 (UniProt Q9NUQ8) | -0.0893
13 | ABCD1 C599 (UniProt P33897) | 0.131
14 | ABCC5 C760 (UniProt O15440) | -0.154
15 | ABL1 C369 (UniProt P00519) | -0.254
16 | ABCF2 C586 (UniProt Q9UG63) | -0.0326
17 | ABHD6 C134 (UniProt Q9BV23) | -0.358
18 | ABL2 C999 (UniProt P42684) | 0.139
19 | ACADS C151 (UniProt P16219) | 0.56
20 | AARS2 C555 (UniProt Q5JTZ9) | -0.153

same assay, conditions: 200 µM; treatment time: 4 h; cell line lysate: HEK293T

Row | Target | log2 mean competition ratio
21 | ABCD1 C511 (UniProt P33897) | -0.0299
22 | ACADSB C261 (UniProt P45954) | 0.219
23 | ABHD17C C87 (UniProt Q6PCB6) | -0.115
24 | ABCB8 C364 (UniProt Q9NUT2) | 0.264
25 | ACACA C407 (UniProt Q13085) | -0.338
26 | ABCF3 C680 (UniProt Q9NUQ8) | -0.0556
27 | ABL2 C415 (UniProt P42684) | -0.047
28 | ACACA C1396 (UniProt Q13085) | -0.281
29 | ABHD16A C248 (UniProt O95870) | 0.126
30 | AASS C342 | -0.316
31 | AARS2 C904 (UniProt Q5JTZ9) | -0.197
32 | ABCF3 C522 (UniProt Q9NUQ8) | -0.00246
33 | ABCD1 C599 (UniProt P33897) | -0.0892
34 | ABCC5 C760 (UniProt O15440) | 0.089
35 | ABL1 C369 (UniProt P00519) | -0.00328
36 | ABCF2 C586 (UniProt Q9UG63) | -0.252
37 | ABHD6 C134 (UniProt Q9BV23) | 0.0785
38 | ABL2 C999 (UniProt P42684) | -0.165
39 | ACADS C151 (UniProt P16219) | -0.0669
40 | AARS2 C555 (UniProt Q5JTZ9) | 0.0137
